From publication PMC11599123 come the findings set out here.

The chains behind the UniProt entries cited, without tags or fusion partners.
UniProt P61589: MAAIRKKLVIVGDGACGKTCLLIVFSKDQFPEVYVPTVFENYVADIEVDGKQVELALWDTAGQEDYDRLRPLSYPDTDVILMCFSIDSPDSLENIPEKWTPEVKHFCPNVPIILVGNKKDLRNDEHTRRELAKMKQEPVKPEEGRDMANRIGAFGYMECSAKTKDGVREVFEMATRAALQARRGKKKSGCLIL

Results are given in words; binding and its absence hold for the method and conditions named. In cells and extracts the contact can be indirect. These calls come from enrichment with a bait or labelling near it, and not all partners need be listed. Sequences can lack the tags named with a protein.

For the assay, the target named is T1, GST-RhoGDI1 (UniProt Q5XI73).
T1 sequence: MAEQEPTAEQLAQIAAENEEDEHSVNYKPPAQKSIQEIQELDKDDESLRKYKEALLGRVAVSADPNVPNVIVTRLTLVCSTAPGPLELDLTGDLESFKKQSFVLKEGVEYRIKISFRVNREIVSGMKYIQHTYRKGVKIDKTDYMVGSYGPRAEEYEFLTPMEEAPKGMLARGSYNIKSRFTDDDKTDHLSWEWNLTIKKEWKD
Kind of assay: affinity purification with mass spectrometry; GST-RhoGDIs immobilised on glutathione agarose beads, incubated with RBL-2H3 lysate 1 h at 4 °C (50 mM HEPES pH 7.5, 50 mM NaCl, 5 mM MgCl2, 1% Triton X-100); in-gel digestion of bands from the 20 to 25 kDa region, nano-LC MS, SEQUEST; only the target purified.

As for “RhoA, endogenous in RBL-2H3 cells (from UniProt P61589 1-193)”, the binding entry is reported as “binds”.
